Some entries share one result that the patent states for a list of compounds.
Legend:
Format in all cases: in vivo
[1] = tested on: Western corn rootworms (Diabrotica virgifera virgifera); assay: Test method 5: corn seedling immersed in diluted solution, Western corn rootworm larvae; conditions: 500 ppm, corn seedling immersed 30 seconds, second instar larvae, after 5 days, 25° C.
Protocol: Each 1 mg of the test compounds is dissolved into 50 μL of a mixed solution of polyoxyethylene sorbitan mono-cocoate and acetone (polyoxyethylene sorbitan mono-cocoate:acetone=5:95 (v/v ratio)). Thereto is added water containing 0.03% by volume of Shindain (registered trademark) to prepare a diluted solution containing a prescribed concentration of the test compound.
A young entire seedling of Corns (Zea mays) is immersed into the diluted solution for 30 seconds. Thereafter, each two grains of the seedlings are installed in a plastic petri dish ([…]), and 10 Western corn rootworms (Diabrotica virgifera virgifera) at the second instar larval stage are released into the dish. After 5 days, the number of the dead insects is counted, and the mortality of insects is calculated by the following equation. Mortality (%)={Number of dead insects/10}×100
Present compound Nos: 1, 4, 7, 9 to 13, 23, 24, 26 to 29, 32, 33, 35, 38, 39, 41, 43, 44, 47, 48, 59, 60, 62, 63, 67 to 70, 73 to 83, and 96

[2] = tested on: tobacco cutworms (Spodoptera litura); assay: Test method 3: sprayed cabbage seedling, tobacco cutworm larvae; conditions: 500 ppm, sprayed 20 mL/seedling on cabbage, second instar larvae, after 5 days, 25° C.
Protocol: Test compounds are made to a formulation according to a similar method to that described in the Formulation example 5, and thereto is added water containing 0.03 v/v % of Shindain (registered trademark) to prepare a diluted solution containing a prescribed concentration of the test compound.
Cabbage (Brassicae oleracea) seedling (on the developmental stage of the second to third true leaf) is planted in a cup, and the diluted solutions are sprayed into the seedling at a ratio of 20 mL/seedling. Thereafter, the stem and leaf thereof is cut out and then is installed into a cup that is covered with filter paper on the bed of the cup. Five (5) tobacco cutworms (Spodoptera litura) at the second instar larval stage are released into the cup. After 5 days, the number of the surviving insects is counted, and the mortality of insects is calculated by the following equation. Mortality (%)=(1−Number of surviving insects/5)×100
Present compound Nos: 1, 3, 4, 6 to 12, 23, 25 to 30, 32, 35 to 43, 47 to 49, 92, 93, 97, and 107

[3] = tested on: cotton aphids (Aphis gossypii); assay: Test method 1: foliar spray on cucumber seedling infested with cotton aphids; conditions: 500 ppm, sprayed 10 mL/seedling on cucumber, surviving insects examined after 5 days, 25° C.
[4] = tested on: cotton aphids (Aphis gossypii); assay: Test method 2: soil drench at foot of cucumber seedling, cotton aphids released later; conditions: 1000 ppm, drenched 5 mL/seedling at foot of cucumber, aphids released after 7 days, examined after 6 days, 25° C.
[5] = tested on: cabbage moths (Plutella xylostella); assay: Test method 4: sprayed cabbage seedling, cabbage moth larvae; conditions: 500 ppm, sprayed 20 mL/seedling on cabbage, second instar larvae, after 5 days, 25° C.

In the case of `CCS(=O)(=O)c1c(-c2cnc(OCC(F)(F)C(F)(F)F)n(C)c2=O)nc2cc(Cl)ccn12` [compound 38], the mortality of insects [1] is reported as ≥ 80%.

For `CCS(=O)(=O)c1c(-c2cnc(OCC(F)(F)C(F)(F)F)n(C)c2=O)nc2ccc(C#N)cn12` [compound 44], the mortality of insects [1] was ≥ 80%.

`CCSc1c(-c2cnc(OCC(F)(F)C(F)(F)F)n(C)c2=O)nc2ccc(C(F)(F)F)cn12` [compound 4] was tested, and the mortality of insects [1] was ≥ 80%, the mortality of insects [2] was ≥ 80% and the controlling value [3] was ≥ 90%.

`CCS(=O)(=O)c1c(-c2cnc(OCC(F)(F)C(F)(F)F)n(C)c2=O)nc2ccc(C3CC3)cn12` [compound 32] was tested, and the mortality of insects [1] was ≥ 80% and the mortality of insects [2] was ≥ 80%.

`CCS(=O)(=O)c1c(-c2cnc(OCC(F)(F)C(F)(F)F)n(C)c2=O)nc2ccc(Br)cn12` [compound 27] was tested, and the controlling value [4] was ≥ 90%.

`CCS(=O)(=O)c1c(-c2cnc(OCC(F)(F)C(F)F)n(C)c2=S)nc2ccc(Br)cn12` [compound 92] was tested, and the controlling value [3] was ≥ 90%.

`CCS(=O)(=O)c1c(-c2cnc(OCC(F)(F)C(F)(F)F)n(C)c2=O)nc2ncc(I)cn12` [compound 99] was tested, and the mortality of insects [5] was ≥ 80%.

In the case of `CCSc1c(-c2ccc(OCC(F)(F)C(F)(F)F)n(C)c2=O)nc2ccc(-c3ccc(F)cc3)cn12` [compound 3], the mortality of insects [2] is reported as ≥ 80%.

In the case of `CCS(=O)(=O)c1c(-c2cnc(OCC(F)(F)C(F)(F)F)n(C)c2=O)nc2ncc(Br)cn12` [compound 68], the controlling value [4] is reported as ≥ 90%.

With `CCS(=O)(=O)c1c(-n2ccc(OCC(F)(F)C(F)(F)F)cc2=O)nc2ccc(Br)cn12` [Present compound 96] the mortality of insects [1] was ≥ 80%.

For `CCS(=O)(=O)c1c(-c2cnc(OCC(F)(F)C(F)C(F)(F)F)n(C)c2=O)nc2ccc(Br)cn12` (stereo not drawn) [compound 60], the controlling value [3] was ≥ 90%.

With `CCS(=O)(=O)c1c(-c2cnc(OCC(F)(F)C(F)(F)C(F)(F)F)n(C)c2=O)nc2ccc(I)cn12` [compound 59] the controlling value [3] was ≥ 90%.

In the case of `CCS(=O)(=O)c1c(-c2cnc(OCC(F)(F)C(F)F)n(C)c2=S)nc2ccc(I)cn12` [compound 93], the controlling value [3] is reported as ≥ 90%.

In the case of `CCS(=O)(=O)c1c(-c2cnc(OCC(F)(F)C(F)(F)F)n(C)c2=O)nc2cc(Br)c(I)cn12` [compound 100], the mortality of insects [5] is reported as ≥ 80%.

For `CCS(=O)(=O)c1c(-c2cnc(OCC(F)(F)C(F)(F)F)n(C)c2=O)nc2cc(Br)ccn12` [compound 35], the mortality of insects [1] was ≥ 80%.

In the case of `CCSc1c(-c2cnc(OCC(F)(F)C(F)(F)F)n(C)c2=O)nc2cc(Br)ccn12` [compound 51], the mortality of insects [5] is reported as ≥ 80% and the controlling value [3] is reported as ≥ 90%.

With `CCS(=O)(=O)c1c(-c2cnc(OCC(F)(F)C(F)(F)F)n(C)c2=O)nc2ccc(C(F)(F)F)cn12` [compound 10] the controlling value [4] was ≥ 90%.

For `CCS(=O)(=O)c1c(-c2cnc(OCC(F)(F)C(F)(F)F)n(C)c2=O)nc2cc(Br)c(Br)cn12` [compound 47], the mortality of insects [1] was ≥ 80%.

In the case of `CC[S+]([O-])c1c(-c2cnc(OCC(F)(F)C(F)(F)F)n(C)c2=O)nc2ccc(Br)cn12` (stereo not drawn) [compound 48], the mortality of insects [1] is reported as ≥ 80%.

`CCS(=O)(=O)c1c(-c2ccc(OCC(F)(F)C(F)(F)F)n(C)c2=O)nc2ccc(Br)cn12` [compound 23] was tested, and the mortality of insects [1] was ≥ 80%, the controlling value [4] was ≥ 90% and the mortality of insects [2] was ≥ 80%.

`CCS(=O)(=O)c1c(-c2ccc(OCC(F)(F)C(F)(F)F)n(C)c2=O)nc2ccc(I)cn12` [compound 24] was tested, and the mortality of insects [1] was ≥ 80% and the controlling value [4] was ≥ 90%.

For `CCS(=O)(=O)c1c(-c2cnc(OCC(F)(F)C(F)(F)F)n(C)c2=O)nc2ccc(-c3ccc(C(F)(F)F)nc3)cn12` [compound 33], the mortality of insects [1] was ≥ 80%.

For `CCS(=O)(=O)c1c(-c2cnc(OCC(F)(F)C(F)(F)F)n(C)c2=O)nc2ccc(F)cn12` [compound 25], the controlling value [4] was ≥ 90%.

`C=C(C)c1ccc2nc(-c3cnc(OCC(F)(F)C(F)(F)F)n(C)c3=O)c(S(=O)(=O)CC)n2c1` [compound 43] was tested, and the mortality of insects [1] was ≥ 80%.

With `CCS(=O)(=O)c1ccc2nc(-c3cnc(OCC(F)(F)C(F)(F)F)n(C)c3=O)c(S(=O)(=O)CC)n2c1` [compound 107] the mortality of insects [5] was ≥ 80%, the mortality of insects [2] was ≥ 80% and the controlling value [3] was ≥ 90%.

For `CCS(=O)(=O)c1c(-c2cnc(OCC(F)(F)C(F)(F)F)n(C)c2=O)nc2ccc(Cl)nn12` [compound 69], the controlling value [4] was ≥ 90%.

With `CCS(=O)(=O)c1c(-c2cnc(OCC(F)(F)C(F)F)n(C)c2=O)nc2ccc(I)cn12` [compound 78] the controlling value [4] was ≥ 90%.
